Record: PubChem BioAssay AID602196 (INSERM, 2012)
The deposit covers about 23,000 reagents; shown is an unselected part. 455 of all reagents (2%) count as active. 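Active includes both protection and sensitisation; some change values fall well beyond the stated -50 to +50 range.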 Entries without a mark were called inactive. Not all columns of the deposit are shown. Not given: the amount of reagent.

- Purpose: 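Genes whose knock-down alters cisplatin killing of lung cancer cells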
- System: human A549 lung cancer cells
- Reagent: siRNA pair against human genes
- Time to read-out: 48 h transfection before cisplatin; time from cisplatin to read-out not stated
- Treatment: cisplatin at a dose killing half of control-siRNA cells; exact dose and duration not given
- Detection: 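Cisplatin cell death as a shift from the 50% death seen with control siRNA; siRNAs toxic or growth-blocking alone scored 0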
- Direction: two-siRNA summed score (-2 to +2): higher = both siRNAs protect from cisplatin killing; -2 means both sensitise; mean protection from cisplatin (shift in death): higher = protection from cisplatin killing
- Hit rule: 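siRNAs harmful alone (LDH or WST-1) get 0; others get +1 for less and -1 for more cisplatin killing; genes are active when the two siRNAs give the same sign, summing to ±2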
- Calls: active = both siRNAs shift cisplatin killing the same way; inactive = no consistent shift, or siRNA harmful alone

REG4 [SID131514720] → two-siRNA summed score (-2 to +2): 0; mean protection from cisplatin (shift in death) (%): 8.2
LIN54 [SID131516714] → two-siRNA summed score (-2 to +2): 0; mean protection from cisplatin (shift in death) (%): 11.5
INSM1 [SID131516645] → two-siRNA summed score (-2 to +2): 0; mean protection from cisplatin (shift in death) (%): 11.3
ASIC1 [SID131518199] → two-siRNA summed score (-2 to +2): 0; mean protection from cisplatin (shift in death) (%): 17.2
CCDC141 [SID131502717] → two-siRNA summed score (-2 to +2): -1; mean protection from cisplatin (shift in death) (%): 3.5
LOC388278 [SID131509351] → two-siRNA summed score (-2 to +2): 0; mean protection from cisplatin (shift in death) (%): 2.1
PTPRJ [SID131511675] → two-siRNA summed score (-2 to +2): 0; mean protection from cisplatin (shift in death) (%): 4.6
LRRC61 [SID131516106] → two-siRNA summed score (-2 to +2): 0; mean protection from cisplatin (shift in death) (%): 10.3
LOC388274 [SID131513002] → two-siRNA summed score (-2 to +2): 0; mean protection from cisplatin (shift in death) (%): 6.1
LOC440452 [SID131518430] → two-siRNA summed score (-2 to +2): 0; mean protection from cisplatin (shift in death) (%): 19.5
MAPK1 [SID131508365] → two-siRNA summed score (-2 to +2): 0; mean protection from cisplatin (shift in death) (%): 1

Just “two-siRNA summed score (-2 to +2)” (3 entries from above):
CCDC141 [SID131502717]: -1
LOC388278 [SID131509351]: 0
PTPRJ [SID131511675]: 0

Additional results:
ATXN7L1 [SID131517033] → two-siRNA summed score (-2 to +2): 0; mean protection from cisplatin (shift in death) (%): 12.2
OR10H2 [SID131504811] → two-siRNA summed score (-2 to +2): 0; mean protection from cisplatin (shift in death) (%): -4.4
FGA [SID131507049] → two-siRNA summed score (-2 to +2): 0; mean protection from cisplatin (shift in death) (%): -0.6
HMGN5 [SID131503896] → two-siRNA summed score (-2 to +2): 0; mean protection from cisplatin (shift in death) (%): -7.2
FLT3 [SID131515125] → two-siRNA summed score (-2 to +2): 0; mean protection from cisplatin (shift in death) (%): 8.7
RIPOR1 [SID131503567] → two-siRNA summed score (-2 to +2): 0; mean protection from cisplatin (shift in death) (%): -9.2
DEFB1 [SID131500398] → two-siRNA summed score (-2 to +2): -2 (active); mean protection from cisplatin (shift in death) (%): -14.3
CCDC70 [SID131510074] → two-siRNA summed score (-2 to +2): 0; mean protection from cisplatin (shift in death) (%): 2.8
NOP53 [SID131512517] → two-siRNA summed score (-2 to +2): 0; mean protection from cisplatin (shift in death) (%): 5.6
CADPS [SID131509675] → two-siRNA summed score (-2 to +2): 0; mean protection from cisplatin (shift in death) (%): 2.4
